From PubChem BioAssay AID1347426 (Functional Genomics Laboratory (NCATS/FGL), 2020) come the findings set out here.

The whole screen tested about 31,000 sequences, of which about 1,400 (4.5%) were called active.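 How the source made its calls: active means median seed-adjusted z-score above 1 or below -1; inactive means the rest.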 This is one part of the list.

This test in a line: Novel Modifiers of Survival Motor Neuron (SMN) Protein: Gene Identification via Genome-wide siRNA Screen.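 Further: luminescence tracks full-length SMN protein made from the SMN2 reporter.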 The conditions noted are these: HEK293T SMN2-luciferase reporter, siRNA knockdown, 72 h; actives lie on both sides. The gist of the method: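 HEK293T cells stably expressing an SMN2 splicing/cDNA-luciferase reporter were reverse-transfected with a druggable-genome siRNA library and read by luminescence at 72 hours; hits defined by MAD score above 1.0 or below -1.0.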
With GACCUAUACUCAUUCUGCATT against ZBTB41, the median seed-adjusted z-score is inactive: 0.173.

For CAACAUAUCUGCACAGGUATT against FLVCR2, the median seed-adjusted z-score was inactive: -0.336.

For GGACGAAGAAAUUAGCAGATT against QKI, the median seed-adjusted z-score was inactive: -0.206.

Consider GCUGUGACAUGGUCUACAATT against BSN, for which the median seed-adjusted z-score was inactive: 0.116.

In the case of CCAUCCUGGAAAUACCCUATT against SERPINA12, the median seed-adjusted z-score was inactive: -0.382.

As to CCAAAUCUCCUUAUACGAUTT against AFF3, the median seed-adjusted z-score was inactive: -0.00277.

On to GAAUUGGACUGGAUGCUAATT against DGKK, for which the median seed-adjusted z-score was inactive: 0.

On to GAAUCUUGCCCGUCUAUAATT against RSC1A1, for which the median seed-adjusted z-score was inactive: 0.438.

As for CAGCUAUCAGAAUAGGUAUTT against CREBBP, the median seed-adjusted z-score was inactive: 0.

In the case of GGCAGAACUGUUUAUGGAATT against ZNF280D, the median seed-adjusted z-score was inactive: 0.374.

For the sequence CGUCCGUGAUUGAUGAUGATT against BAP1, the median seed-adjusted z-score was inactive: -0.374.

Consider ACAAGAUCGUCUUCUUUAATT against MMP17, for which the median seed-adjusted z-score is inactive: -0.653.

Consider GGCUCAUAUAUUCAACGUATT against USO1, for which the median seed-adjusted z-score is inactive: 0.21.

CGAUUAAGUUAUUACGGUUTT against TOP2B: the median seed-adjusted z-score is inactive: 0.225.

As for UCCUAUGAAUGUCCACAAUTT against ZNF443, the median seed-adjusted z-score was inactive: 0.0544.

Regarding UGGUAACCAUUGUUAUUAUTT against KLRG1, the median seed-adjusted z-score was inactive: -0.0324.

As to AGAAGAAUAAUUCCAUGAATT against OBFC2A, the median seed-adjusted z-score was inactive: 0.406.

Regarding AGGCAAACGUGUUCGUGCATT against IGFALS, the median seed-adjusted z-score was inactive: 0.0888.

Consider GUUUCACACCAGCCUGGAATT against PYCARD, for which the median seed-adjusted z-score was inactive: 0.117.

CGCCCACGUCAUUUGCAUATT against PYY: the median seed-adjusted z-score was inactive: 0.437.

As to ACGACGACAUUGUGGUUCATT against NFKBIB, the median seed-adjusted z-score is inactive: 0.00673.

For GCACUAUUAAAAUUCCCGATT against SBF2, the median seed-adjusted z-score was inactive: 0.569.

GGAUUUUCAGAGGAUUGAATT against ZRANB1: the median seed-adjusted z-score is inactive: -0.347.

In the case of CCUCCAUUCUCUUUGACCATT against RPS6KA4, the median seed-adjusted z-score is inactive: 0.193.

In the case of CCUGAACAUUGGACCCUGUTT against CPSF1, the median seed-adjusted z-score was active: 3.29.

For GGCCGCUGCUUGUUUGUCATT against SLC13A3, the median seed-adjusted z-score is inactive: 0.0434.

Regarding CUGUUUAACUGUGUAGGAATT against NOG, the median seed-adjusted z-score was inactive: 0.328.

With GCGAAUAUGUAGAGAUGUATT against NFE2, the median seed-adjusted z-score was inactive: -0.0226.

As for CAAUCACUAUAGUCCAUGATT against KCNJ2, the median seed-adjusted z-score was inactive: -0.0834.

On to GGGUAUCAUUAAUGGGAUUTT against CLASP2, for which the median seed-adjusted z-score is inactive: 0.157.

CCACCAGUUUUAGUACCCATT against FLVCR1: the median seed-adjusted z-score was inactive: 0.197.

With CCUGGACAGUUUGAAGCAATT against KCTD15, the median seed-adjusted z-score was inactive: 0.982.

Consider GGAUUUGCAUCCGUGAUUATT against SLC5A8, for which the median seed-adjusted z-score is inactive: 0.441.

Regarding CAGACUCCCUCAUCACCAATT against ALAS1, the median seed-adjusted z-score is active: -1.15.

In the case of CUACGUGUCUUAUCGAAGATT against SORCS3, the median seed-adjusted z-score is inactive: -0.151.

For CCAGGACUUUGUUACUGCATT against TIGD6, the median seed-adjusted z-score is inactive: -0.443.

On to GCACGAGGCUGGUACAGUUTT against MFNG, for which the median seed-adjusted z-score was inactive: 0.377.

For CAGGCUCAAUGAAUCGAAUTT against KHSRP, the median seed-adjusted z-score is inactive: -0.856.

On to CAUUGUGAGCUAUAACGAUTT against CDH10, for which the median seed-adjusted z-score is inactive: 0.

For the sequence UGACAGUGACGGAUGCUAATT against OPLAH, the median seed-adjusted z-score was inactive: -0.233.

On to CCUUAGGACUGAUGGAGAATT against CPT1C, for which the median seed-adjusted z-score was inactive: -0.458.

Turning to GCCUAUGCUGAACUCAUUATT against USP4, the median seed-adjusted z-score is inactive: -0.0365.

On to GACUCGACCUUCUCAGAGATT against GRHL1, for which the median seed-adjusted z-score was inactive: 0.115.

Regarding UGAUGCUGGUUUCUACUGUTT against MS4A6E, the median seed-adjusted z-score was inactive: -0.341.

On to GGUUGACAUUACUACUGAATT against IRAK4, for which the median seed-adjusted z-score was inactive: -0.288.

Turning to GGUAUACAGAUGACAACAATT against DMC1, the median seed-adjusted z-score was inactive: -0.00876.

For CCCUGUCAUCUAUGCUCUATT against CNR2, the median seed-adjusted z-score was inactive: 0.33.

On to AGGACUUUGAGGAACCGGATT against TNK2, for which the median seed-adjusted z-score is inactive: -0.574.

Take CCAAGAUAUUCUUCGAGAATT against CADPS2: the median seed-adjusted z-score was inactive: -0.0213.

Consider AGUCCUCGGUGGUAACCAATT against P2RX3, for which the median seed-adjusted z-score is inactive: -0.44.

Turning to GCAUGCUCAUGGGUUACAATT against ZNF451, the median seed-adjusted z-score is inactive: 0.

GAACUGACCUCUACACUAATT against AGBL2: the median seed-adjusted z-score was inactive: -0.796.

Turning to CAACAUUGAUGUUCCUCCATT against ZNF704, the median seed-adjusted z-score is inactive: -0.15.

In the case of GGCUUCUCCCAGAGCAUCATT against CLCNKA, the median seed-adjusted z-score is inactive: -0.398.

With GAAUAUUCUCGAUUUAAUATT against PPP1R3D, the median seed-adjusted z-score was inactive: 0.

For the sequence CCUGCAGAAUAACCUGAUATT against OPTC, the median seed-adjusted z-score is inactive: 0.0953.

For GGAAGACCCAAAGAGGGAATT against SNX11, the median seed-adjusted z-score was inactive: 0.00451.

Consider CCACCUACCUGAAUGUCCATT against ORM1, for which the median seed-adjusted z-score is inactive: 0.206.

On to GGGAGUGACAUAUCCAAGATT against CCL26, for which the median seed-adjusted z-score is inactive: -0.01.

CAGCCUUCGUGAUAGCUCATT against ADAMTS14: the median seed-adjusted z-score is inactive: 0.209.

Take CGACUAUCCUGGACCACAUTT against WNT3: the median seed-adjusted z-score is inactive: -0.839.

For the sequence AAUAAGUUAUUUAGACAGATT against NAT8L, the median seed-adjusted z-score is inactive: 0.

In the case of GAAAGAUCUGCAUCCAUAATT against ADAM21, the median seed-adjusted z-score is inactive: 0.

GCUAUGAGCUAAGGGAGAATT against PPIL5: the median seed-adjusted z-score is inactive: 0.

For the sequence CGGCUAUCAUUGAAAGCGATT against FSD1, the median seed-adjusted z-score is inactive: 0.685.

Regarding GAUGGUGAAUAGUCGAUUUTT against PCSK1, the median seed-adjusted z-score is inactive: 0.154.

Regarding CUCUAGCUGAUAAACCUCATT against TRIM23, the median seed-adjusted z-score was inactive: -0.318.

With GGAUAUCCAUAUCAAACCATT against RG9MTD2, the median seed-adjusted z-score was inactive: -0.599.

As for GCCUUUAGUAGGUCAAGAATT against ZNF721, the median seed-adjusted z-score is inactive: 0.404.

In the case of CGAGGGCAUAUAUGAAGAATT against TRAF2, the median seed-adjusted z-score was inactive: -0.00463.

For AGAUUUGGAUACCGCAAAATT against PPIL5, the median seed-adjusted z-score is inactive: 0.

As for CCGGAUACCUCAACUCUCATT against NIT1, the median seed-adjusted z-score is inactive: -0.528.

On to GCCGAAAAGAGAUGGAUAATT against MYO18B, for which the median seed-adjusted z-score was inactive: -0.597.

For GGAAGCUACAUGACAGUAATT against RASEF, the median seed-adjusted z-score is inactive: 0.299.

Regarding GCUGCGUGCUCAUCCGAAATT against APRT, the median seed-adjusted z-score is inactive: 0.0278.

Turning to AGGAAGGUGUGAAGAAGAATT against SNX15, the median seed-adjusted z-score was inactive: -0.152.

As for CUUCCUUCGUCUUCACCUATT against FOS, the median seed-adjusted z-score is inactive: 0.343.

Consider GGAGAGGCAGAUCAAGAUATT against HOXB6, for which the median seed-adjusted z-score was inactive: -0.168.

GGUCAAACAAAUAAAAGUUTT against TNFRSF10D: the median seed-adjusted z-score is inactive: 0.0234.

On to AGAUGGAUGCUCACCCGAATT against LIMD1, for which the median seed-adjusted z-score was inactive: 0.587.

CAUCAGACAUUCACAACAATT against UST: the median seed-adjusted z-score is inactive: 0.265.

For CUUGGAAUAUAUAUCGAUATT against CNIH4, the median seed-adjusted z-score was inactive: -0.0718.

For GGUUAUGAACUUUGGAUAATT against GPR103, the median seed-adjusted z-score was inactive: 0.

In the case of CCAGCAUUGCGGAAGUGCATT against CACNB3, the median seed-adjusted z-score was inactive: 0.573.

For the sequence CUGCAAUUCUGUAUACCUATT against FLJ12529, the median seed-adjusted z-score is inactive: 0.852.

With CAGCAUUCAUUGAUCAAUUTT against ZBTB6, the median seed-adjusted z-score was inactive: -0.225.

Take GAAUAGAACUUCGUUCUUUTT against IPP: the median seed-adjusted z-score is inactive: 0.298.

GCAGGUAACUCAUCCACGUTT against RHBDL3: the median seed-adjusted z-score is inactive: 0.56.

For GGCGGAUGCUGUUACGGAUTT against IL8RB, the median seed-adjusted z-score is inactive: -0.387.

Turning to GGCUCAACAUGAAGCAGAATT against RECQL4, the median seed-adjusted z-score is inactive: 0.475.

CGCUUAACAUUGGAGUUCATT against ATG7: the median seed-adjusted z-score was inactive: -0.328.

With CGGCAAGGUGGAUUACAAATT against MYH9, the median seed-adjusted z-score is inactive: -0.517.

As for AGUUCAACUUCGAAGUACATT against TFAP2B, the median seed-adjusted z-score was inactive: 0.

With GCGGUGAUCUUGCUGUAUUTT against ANAPC2, the median seed-adjusted z-score is inactive: -0.116.

On to GGCUCGUAUUUUCUGGUUUTT against ACHE, for which the median seed-adjusted z-score is inactive: 0.

CCGGCAUCUUUGCUACCUATT against AQP3: the median seed-adjusted z-score was inactive: -0.0863.

As to GUAUCGUCCUGAAUAUGAATT against GPN1, the median seed-adjusted z-score was inactive: -0.14.

As for GUUGCACUGUCGGUCCUGATT against GRINA, the median seed-adjusted z-score was inactive: 0.175.

Consider GGAAGAGGCAUGCACCCAATT against GUCY2E, for which the median seed-adjusted z-score is inactive: 0.61.

Turning to GUCUUUGUCUAGAUACAAUTT against BTBD1, the median seed-adjusted z-score is inactive: 0.0192.

In the case of AGGGCGAUAUGAUGCAGAATT against OLIG3, the median seed-adjusted z-score is inactive: -0.598.

CUAUGUGAUUGAUCAAGGATT against PRKAR1A: the median seed-adjusted z-score is inactive: 0.428.

Regarding CGAUUACAUUGACAACCAUTT against KCNQ4, the median seed-adjusted z-score was inactive: 0.583.

Turning to GCGGUACUCAGAAACAGAATT against HEXB, the median seed-adjusted z-score is inactive: 0.0101.

For CACUCUAGAGAAACCCUAUTT against ZNF44, the median seed-adjusted z-score was inactive: 0.349.

On to GCAGUAUGAUAAAGCCUGUTT against ZXDC, for which the median seed-adjusted z-score was inactive: -0.0213.

In the case of GGCUGUUUCUGUUGCGGAATT against BFSP1, the median seed-adjusted z-score was inactive: 0.057.

For the sequence GCUUCGAAGGGAAAACCAATT against GPR17, the median seed-adjusted z-score is inactive: -0.309.
